In one experiment the target is T1, Flag-NPRL2 (UniProt Q8WTW4).
T1 sequence: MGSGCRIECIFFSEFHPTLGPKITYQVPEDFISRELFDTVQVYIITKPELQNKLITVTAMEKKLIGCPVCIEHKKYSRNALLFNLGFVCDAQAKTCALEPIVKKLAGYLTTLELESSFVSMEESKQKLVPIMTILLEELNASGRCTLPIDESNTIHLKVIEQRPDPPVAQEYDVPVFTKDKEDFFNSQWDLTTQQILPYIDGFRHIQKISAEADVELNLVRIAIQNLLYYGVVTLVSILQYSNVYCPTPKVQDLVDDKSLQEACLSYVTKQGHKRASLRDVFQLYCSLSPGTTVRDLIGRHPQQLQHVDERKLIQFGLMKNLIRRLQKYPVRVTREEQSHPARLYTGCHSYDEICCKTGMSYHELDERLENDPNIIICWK
Nature of the experiment: co-IP; anti-Flag magnetic beads on whole cell lysates of HEK293T cells stably expressing Flag-C12orf66 or Flag-NPRL2, with shFBXO2 or increasing HA-FBXO2 (Figure 4A, C, D).

For another experiment, the target named is T2, Flag-tagged KPTN (human) (UniProt Q9Y664).
T2 sequence: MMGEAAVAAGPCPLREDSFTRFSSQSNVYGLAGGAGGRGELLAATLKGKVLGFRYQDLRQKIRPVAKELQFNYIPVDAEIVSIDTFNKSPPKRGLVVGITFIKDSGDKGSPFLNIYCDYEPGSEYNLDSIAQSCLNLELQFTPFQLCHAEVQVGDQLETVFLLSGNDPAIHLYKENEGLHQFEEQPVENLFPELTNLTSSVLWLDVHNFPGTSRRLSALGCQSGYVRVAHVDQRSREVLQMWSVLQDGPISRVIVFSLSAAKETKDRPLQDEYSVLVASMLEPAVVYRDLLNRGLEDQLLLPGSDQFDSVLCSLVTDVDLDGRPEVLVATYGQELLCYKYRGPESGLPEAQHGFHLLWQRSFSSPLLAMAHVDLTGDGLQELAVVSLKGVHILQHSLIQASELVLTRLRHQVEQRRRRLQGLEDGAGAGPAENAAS
Nature of the experiment: co-IP; anti-Flag magnetic beads on whole cell lysates of HEK293T cells transduced with KPTN or KPTN-4KR (Figure 4B with stable HA-C12orf66; Figure 4G).

For experiment [1], the target named is T3, Flag-tagged KPTN-4KR (KPTN-K49/67/262/265R) (human) (UniProt Q9Y664).
T3 sequence: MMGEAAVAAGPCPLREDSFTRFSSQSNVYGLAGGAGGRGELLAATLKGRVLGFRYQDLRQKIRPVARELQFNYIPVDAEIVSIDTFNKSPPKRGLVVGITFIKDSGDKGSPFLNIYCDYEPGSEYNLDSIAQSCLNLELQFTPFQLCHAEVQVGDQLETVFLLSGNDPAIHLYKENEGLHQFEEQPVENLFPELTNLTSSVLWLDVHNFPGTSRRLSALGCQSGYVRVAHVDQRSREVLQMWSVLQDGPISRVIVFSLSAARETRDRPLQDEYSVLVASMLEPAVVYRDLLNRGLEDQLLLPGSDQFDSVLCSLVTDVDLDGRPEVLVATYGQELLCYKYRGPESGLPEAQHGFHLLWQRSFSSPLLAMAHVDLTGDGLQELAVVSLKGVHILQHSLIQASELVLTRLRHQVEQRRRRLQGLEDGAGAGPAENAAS
The description is as above.

No constants are given. Whether binding was seen depends on the method and setting. Binding seen in cells or lysates may run through a third protein. Some entries that bind do so weakly or less than the wild type. Where a sequence is shown, tags or fusion partners need not be part of it.

B1: KPTN (endogenous) (protein, UniProt Q9Y664 1-436)
chain: MMGEAAVAAGPCPLREDSFTRFSSQSNVYGLAGGAGGRGELLAATLKGKVLGFRYQDLRQKIRPVAKELQFNYIPVDAEIVSIDTFNKSPPKRGLVVGITFIKDSGDKGSPFLNIYCDYEPGSEYNLDSIAQSCLNLELQFTPFQLCHAEVQVGDQLETVFLLSGNDPAIHLYKENEGLHQFEEQPVENLFPELTNLTSSVLWLDVHNFPGTSRRLSALGCQSGYVRVAHVDQRSREVLQMWSVLQDGPISRVIVFSLSAAKETKDRPLQDEYSVLVASMLEPAVVYRDLLNRGLEDQLLLPGSDQFDSVLCSLVTDVDLDGRPEVLVATYGQELLCYKYRGPESGLPEAQHGFHLLWQRSFSSPLLAMAHVDLTGDGLQELAVVSLKGVHILQHSLIQASELVLTRLRHQVEQRRRRLQGLEDGAGAGPAENAAS
Regarding B1, the binding result in the experiment with Flag-NPRL2 is listed as “binds”.

B2: NPRL2 (construct not told) (protein, UniProt Q8WTW4 1-380)
chain: MGSGCRIECIFFSEFHPTLGPKITYQVPEDFISRELFDTVQVYIITKPELQNKLITVTAMEKKLIGCPVCIEHKKYSRNALLFNLGFVCDAQAKTCALEPIVKKLAGYLTTLELESSFVSMEESKQKLVPIMTILLEELNASGRCTLPIDESNTIHLKVIEQRPDPPVAQEYDVPVFTKDKEDFFNSQWDLTTQQILPYIDGFRHIQKISAEADVELNLVRIAIQNLLYYGVVTLVSILQYSNVYCPTPKVQDLVDDKSLQEACLSYVTKQGHKRASLRDVFQLYCSLSPGTTVRDLIGRHPQQLQHVDERKLIQFGLMKNLIRRLQKYPVRVTREEQSHPARLYTGCHSYDEICCKTGMSYHELDERLENDPNIIICWK
Take B2: the binding entry (with Flag-tagged KPTN (human); in experiment [1]) was “binds” each time.
